Measurements published in US20200055951A1 (DONG A UNIVERSITY RESEARCH FOUNDATION FOR INDUSTRY ACADEMY …, published 2020).
Substitutions are numbered along the chain they refer to. Results are given in words; binding and its absence hold for the method and conditions named. Some entries that bind do so weakly or less than the wild type. For part of these data: Sequences can lack the tags named with a protein.

How the values were obtained:
[1] = molecular target: T1, pancreatic adenocarcinoma upregulated factor (PAUF) protein (UniProt Q96DA0); assay: screen of single B lymphocytes on PAUF-coated 96-well plate, HRP-labeled anti-mouse antibody
T1 sequence (looked up): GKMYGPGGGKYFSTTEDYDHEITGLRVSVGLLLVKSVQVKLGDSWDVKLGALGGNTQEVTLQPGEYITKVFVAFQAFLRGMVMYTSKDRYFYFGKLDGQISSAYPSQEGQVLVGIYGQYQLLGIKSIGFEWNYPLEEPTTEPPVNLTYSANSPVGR

[2] = molecular target: T1, pancreatic adenocarcinoma upregulated factor (PAUF) protein; assay: competitive ELISA on PAUF-coated plate; competitor biotin-labeled 2H2, streptavidin-HRP
PAUF-N-His = molecular target: T2, PAUF-N-His; assay: indirect ELISA, plates coated with PAUF-N-His and unrelated antigens
T2 sequence: T1 sequence (looked up)

[3] = molecular target: T1, pancreatic adenocarcinoma upregulated factor (PAUF) protein; assay: indirect ELISA, PAUF-coated plate, HRP-labeled anti-mouse antibody
PAUF-His protein [4] = molecular target: T3, PAUF-His protein (UniProt Q96DA0 17-172, limits assumed); assay: indirect ELISA, antigen-coated plate, anti-human kappa light chain-HRP
T3 construct: not shown: His tag
T3 sequence (looked up): T1 sequence (looked up)

PAUF-His protein [5] = molecular target: T3, PAUF-His protein; assay: indirect ELISA, PAUF-His coated, antibody titrated, anti-human Fc-HRP; comparator, weaker than 2H2-VH1/VL1
PAUF-His protein [6] = molecular target: T3, PAUF-His protein; assay: indirect ELISA titration on PAUF-His, anti-human Fc-HRP
PAUF-His protein [7] = molecular target: T3, PAUF-His protein; assay: indirect ELISA, PAUF-His and unspecified antigens coated, antibody at 0, 1 and 5 µg/mL, anti-human kappa light chain-HRP
PAUF-His protein [8] = molecular target: T3, PAUF-His protein; assay: indirect ELISA (affinity), PAUF-His coated, antibody titrated, anti-human Fc-HRP
PAUF-His protein [9] = molecular target: T3, PAUF-His protein; assay: indirect ELISA by the method of Example 2-2 (PAUF-His and unspecified antigens coated, anti-human kappa light chain-HRP)
PAUF-His protein [10] = molecular target: T3, PAUF-His protein; assay: indirect ELISA, PAUF-His coated, antibody titrated, anti-human Fc-HRP

Measured: binding

B1: 2H2 (anti-PAUF protein mouse antibody) (antibody, V domains shown)
VH: QVQLKQSGAELVRPGALVKLSCKASGFNIKDYYMHWVKQRPEQGLEWIGWIDPENGNTIYDPKFQGKASITADTSSNTAYLQLSSLTSEDTAVYYCARRAITTATAWFAYWGQGTLVTVSA
VL: DIVMTQSPSSLAVSAGEKVTMSCKSSQSLLNSRTRKNYLAWYQQKPGQSPKLLIYWASTRESGVPDRFTGSGSGTDFTLTISSVQAEDLAVYYCKQSYNLYTFGAGTKLELK
notes: Mouse monoclonal antibody; also called 21-12 [sic]
binds: [1] | [2] | PAUF-N-His | [3]

B2: 20C5 (anti-PAUF protein mouse antibody) (antibody, V domains shown)
VH: QVQLKESGAELVRPGALVKLSCKASGFNIKDYYMHWVKQRPEQGLEWIGWIDPEHGNTIYDPKFQGKASLTADTSSNTAYLQLSSLTSEDTAVYYCARRGWLPAWFAYWGQGTLVTVSA
VL: B1 VL with M21L, A105G, L111I
notes: Mouse monoclonal antibody
binds: [1] | [2] | PAUF-N-His | [3]

B3: cPMAb22 (chimeric antibody of 2H2) (antibody, V domains shown)
VH: B1 VH
VL: B1 VL
notes: Mouse variable regions of 2H2 on human heavy and light chain constant regions (kappa light chain implied by the anti-human kappa secondary antibody); Expressed in HEK293 cells
binds: PAUF-His protein [4] | PAUF-His protein [5] | PAUF-His protein [6] | PAUF-His protein [7] | PAUF-His protein [8]

B4: cPMAb205 (chimeric antibody of 20C5) (antibody, V domains shown)
VH: B2 VH
VL: B1 VL with M21L, A105G, L111I
notes: Mouse variable regions of 20C5 on human heavy and light chain constant regions (kappa light chain implied by the anti-human kappa secondary antibody); Expressed in HEK293 cells
binds: PAUF-His protein [4] | PAUF-His protein [6] | PAUF-His protein [7] | PAUF-His protein [8]

B5: hPMAb22 (anti-PAUF protein humanized antibody) (antibody, V domains shown)
VH: QVQLVQSGAEVKKPGASVKVSCKASGFNIKDYYMHWVRQAPGQGLEWMGWIDPENGNTNYAQKFQGRVTMTRDTSISTAYMELSRLRSDDTAVYYCARRAITTATAWFAYWGQGTLVTVSS
VL: DIVMTQSPDSLAVSLGERATINCKSSQSLLNSRTRKNYLAWYQQKPGQPPKLLIYWASTRESGVPDRFSGSGSGTDFTLTISSLQAEDVAVYYCKQSYNLYTFGQGTKVEIK
notes: CDR-grafted humanized antibody with human constant regions; Expressed in HEK293 cells; also called 2H2-VH1/VL1; 2H2-VH1-VL1
binds: PAUF-His protein [4] | PAUF-His protein [6] | PAUF-His protein [9] | PAUF-His protein [10]
